# This is one part of the list. Small differences around the control level are noise.
# The chains behind the UniProt entries cited, without tags or fusion partners. Where a name states a change or a piece, a line headed by the entry shows the natural chain unless it says otherwise.
# UniProt P14923: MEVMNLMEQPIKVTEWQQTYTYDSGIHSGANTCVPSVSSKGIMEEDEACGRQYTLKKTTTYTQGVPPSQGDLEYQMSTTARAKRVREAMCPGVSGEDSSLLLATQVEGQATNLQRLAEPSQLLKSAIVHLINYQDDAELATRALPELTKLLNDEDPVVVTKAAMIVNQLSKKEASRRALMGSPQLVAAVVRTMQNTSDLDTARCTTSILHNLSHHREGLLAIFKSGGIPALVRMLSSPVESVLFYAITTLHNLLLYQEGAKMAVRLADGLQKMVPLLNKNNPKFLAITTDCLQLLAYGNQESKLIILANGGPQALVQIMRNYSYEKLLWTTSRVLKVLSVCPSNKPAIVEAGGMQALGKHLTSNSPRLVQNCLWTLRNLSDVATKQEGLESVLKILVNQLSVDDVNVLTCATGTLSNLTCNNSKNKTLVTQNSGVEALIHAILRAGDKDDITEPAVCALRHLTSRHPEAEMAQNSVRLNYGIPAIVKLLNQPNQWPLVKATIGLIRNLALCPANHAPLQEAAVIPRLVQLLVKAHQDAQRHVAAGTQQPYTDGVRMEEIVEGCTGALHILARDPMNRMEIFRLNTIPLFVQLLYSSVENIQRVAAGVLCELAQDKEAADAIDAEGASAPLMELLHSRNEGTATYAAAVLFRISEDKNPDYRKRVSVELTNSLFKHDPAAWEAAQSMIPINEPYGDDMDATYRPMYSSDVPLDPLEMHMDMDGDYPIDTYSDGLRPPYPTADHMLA
# UniProt P20585: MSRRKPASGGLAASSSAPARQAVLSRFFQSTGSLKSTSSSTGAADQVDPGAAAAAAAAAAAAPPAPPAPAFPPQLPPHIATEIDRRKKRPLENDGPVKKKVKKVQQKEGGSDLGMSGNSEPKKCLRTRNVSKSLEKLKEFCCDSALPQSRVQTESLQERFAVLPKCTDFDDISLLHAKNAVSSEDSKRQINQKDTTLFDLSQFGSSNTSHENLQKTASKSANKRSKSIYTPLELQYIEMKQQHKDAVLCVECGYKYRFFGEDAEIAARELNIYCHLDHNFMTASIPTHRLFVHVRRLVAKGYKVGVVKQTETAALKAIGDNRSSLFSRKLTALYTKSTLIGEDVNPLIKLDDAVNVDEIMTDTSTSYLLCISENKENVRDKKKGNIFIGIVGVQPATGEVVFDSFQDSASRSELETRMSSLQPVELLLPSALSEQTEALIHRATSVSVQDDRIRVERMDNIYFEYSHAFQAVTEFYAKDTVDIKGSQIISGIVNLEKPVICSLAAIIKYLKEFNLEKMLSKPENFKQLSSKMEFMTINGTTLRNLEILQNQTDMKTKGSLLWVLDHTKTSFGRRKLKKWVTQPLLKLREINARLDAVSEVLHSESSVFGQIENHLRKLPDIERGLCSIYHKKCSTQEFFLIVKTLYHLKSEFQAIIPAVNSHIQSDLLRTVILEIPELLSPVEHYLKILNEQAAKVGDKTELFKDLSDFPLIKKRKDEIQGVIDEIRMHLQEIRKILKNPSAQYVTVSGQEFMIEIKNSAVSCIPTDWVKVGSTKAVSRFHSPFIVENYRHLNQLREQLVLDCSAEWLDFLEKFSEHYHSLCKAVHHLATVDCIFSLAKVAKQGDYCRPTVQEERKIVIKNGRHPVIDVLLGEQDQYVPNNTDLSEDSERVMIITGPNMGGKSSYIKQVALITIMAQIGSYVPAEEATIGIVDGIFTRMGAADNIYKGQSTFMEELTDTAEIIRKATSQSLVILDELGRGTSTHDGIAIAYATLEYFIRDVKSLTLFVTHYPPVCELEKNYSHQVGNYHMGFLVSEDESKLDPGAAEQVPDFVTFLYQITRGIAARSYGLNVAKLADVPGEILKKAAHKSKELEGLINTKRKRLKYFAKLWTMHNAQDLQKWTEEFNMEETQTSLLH
# UniProt P28331, whole entry: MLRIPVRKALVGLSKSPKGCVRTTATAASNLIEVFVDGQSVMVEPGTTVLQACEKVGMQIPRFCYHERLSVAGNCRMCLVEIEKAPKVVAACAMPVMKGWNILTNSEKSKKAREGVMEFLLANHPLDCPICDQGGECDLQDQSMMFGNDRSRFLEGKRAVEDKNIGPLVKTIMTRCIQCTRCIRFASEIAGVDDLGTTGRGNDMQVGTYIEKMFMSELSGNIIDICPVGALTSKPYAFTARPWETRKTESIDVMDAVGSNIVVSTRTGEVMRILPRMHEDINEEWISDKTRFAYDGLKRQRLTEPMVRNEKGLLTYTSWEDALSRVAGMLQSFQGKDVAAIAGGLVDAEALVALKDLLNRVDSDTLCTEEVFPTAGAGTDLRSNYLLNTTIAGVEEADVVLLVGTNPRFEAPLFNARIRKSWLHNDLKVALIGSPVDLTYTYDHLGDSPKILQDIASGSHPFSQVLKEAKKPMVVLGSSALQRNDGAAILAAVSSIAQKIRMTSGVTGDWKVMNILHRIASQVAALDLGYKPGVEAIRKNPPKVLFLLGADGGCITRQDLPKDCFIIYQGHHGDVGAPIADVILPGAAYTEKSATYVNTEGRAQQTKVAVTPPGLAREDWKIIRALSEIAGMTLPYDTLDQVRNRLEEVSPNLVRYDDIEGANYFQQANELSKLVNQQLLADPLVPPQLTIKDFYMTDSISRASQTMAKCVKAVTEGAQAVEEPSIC
# UniProt P22102: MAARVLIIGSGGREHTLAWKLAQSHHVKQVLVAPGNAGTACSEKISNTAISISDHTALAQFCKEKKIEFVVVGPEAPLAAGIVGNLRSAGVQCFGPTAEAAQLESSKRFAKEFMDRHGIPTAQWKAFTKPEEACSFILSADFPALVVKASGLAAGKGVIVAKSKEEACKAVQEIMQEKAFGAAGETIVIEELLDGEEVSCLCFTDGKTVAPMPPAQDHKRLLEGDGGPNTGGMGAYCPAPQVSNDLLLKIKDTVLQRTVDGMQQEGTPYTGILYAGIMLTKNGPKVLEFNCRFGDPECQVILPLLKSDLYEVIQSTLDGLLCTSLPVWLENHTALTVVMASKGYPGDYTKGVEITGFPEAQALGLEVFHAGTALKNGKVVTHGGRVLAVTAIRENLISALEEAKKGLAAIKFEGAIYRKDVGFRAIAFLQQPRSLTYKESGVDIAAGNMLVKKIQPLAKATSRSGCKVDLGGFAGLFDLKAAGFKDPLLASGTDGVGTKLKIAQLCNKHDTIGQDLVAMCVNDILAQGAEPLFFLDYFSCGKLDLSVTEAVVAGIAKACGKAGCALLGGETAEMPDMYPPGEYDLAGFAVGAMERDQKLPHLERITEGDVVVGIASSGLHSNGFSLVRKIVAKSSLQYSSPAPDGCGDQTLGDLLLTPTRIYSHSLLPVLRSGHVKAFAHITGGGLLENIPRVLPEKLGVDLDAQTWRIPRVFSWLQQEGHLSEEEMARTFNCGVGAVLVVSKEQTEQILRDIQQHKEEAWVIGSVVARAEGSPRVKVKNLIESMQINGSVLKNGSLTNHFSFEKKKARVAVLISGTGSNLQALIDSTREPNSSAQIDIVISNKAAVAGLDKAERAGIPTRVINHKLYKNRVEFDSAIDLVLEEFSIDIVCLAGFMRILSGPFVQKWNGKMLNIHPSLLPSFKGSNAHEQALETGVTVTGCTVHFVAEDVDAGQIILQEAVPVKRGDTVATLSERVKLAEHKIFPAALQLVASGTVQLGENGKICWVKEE
# UniProt P26374: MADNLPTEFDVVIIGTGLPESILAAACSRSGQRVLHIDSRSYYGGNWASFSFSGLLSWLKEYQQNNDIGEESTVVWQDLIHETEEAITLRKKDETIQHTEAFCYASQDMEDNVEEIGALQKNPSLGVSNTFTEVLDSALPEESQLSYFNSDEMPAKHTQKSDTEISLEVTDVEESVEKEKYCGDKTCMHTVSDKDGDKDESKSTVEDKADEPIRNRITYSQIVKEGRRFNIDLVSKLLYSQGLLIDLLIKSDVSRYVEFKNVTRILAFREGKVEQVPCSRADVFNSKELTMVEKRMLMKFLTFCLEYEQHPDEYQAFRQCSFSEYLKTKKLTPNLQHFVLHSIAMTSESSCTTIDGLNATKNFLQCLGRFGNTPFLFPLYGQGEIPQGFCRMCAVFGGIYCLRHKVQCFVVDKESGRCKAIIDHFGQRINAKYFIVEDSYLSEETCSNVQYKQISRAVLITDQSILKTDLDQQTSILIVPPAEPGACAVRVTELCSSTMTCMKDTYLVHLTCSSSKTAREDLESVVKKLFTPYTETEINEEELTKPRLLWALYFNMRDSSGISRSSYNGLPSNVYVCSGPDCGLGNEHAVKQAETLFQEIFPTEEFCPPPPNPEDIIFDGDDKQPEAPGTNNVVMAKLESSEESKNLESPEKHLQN
# UniProt P17707: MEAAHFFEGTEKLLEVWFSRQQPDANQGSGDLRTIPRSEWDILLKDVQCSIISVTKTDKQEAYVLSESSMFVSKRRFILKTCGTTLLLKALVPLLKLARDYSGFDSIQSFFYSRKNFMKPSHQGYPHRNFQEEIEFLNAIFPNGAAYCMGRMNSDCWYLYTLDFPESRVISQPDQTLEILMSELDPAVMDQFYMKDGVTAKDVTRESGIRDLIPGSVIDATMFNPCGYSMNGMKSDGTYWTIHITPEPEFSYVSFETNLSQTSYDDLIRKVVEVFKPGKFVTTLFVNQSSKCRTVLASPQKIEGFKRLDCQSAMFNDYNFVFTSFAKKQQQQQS
# UniProt P23677, whole entry: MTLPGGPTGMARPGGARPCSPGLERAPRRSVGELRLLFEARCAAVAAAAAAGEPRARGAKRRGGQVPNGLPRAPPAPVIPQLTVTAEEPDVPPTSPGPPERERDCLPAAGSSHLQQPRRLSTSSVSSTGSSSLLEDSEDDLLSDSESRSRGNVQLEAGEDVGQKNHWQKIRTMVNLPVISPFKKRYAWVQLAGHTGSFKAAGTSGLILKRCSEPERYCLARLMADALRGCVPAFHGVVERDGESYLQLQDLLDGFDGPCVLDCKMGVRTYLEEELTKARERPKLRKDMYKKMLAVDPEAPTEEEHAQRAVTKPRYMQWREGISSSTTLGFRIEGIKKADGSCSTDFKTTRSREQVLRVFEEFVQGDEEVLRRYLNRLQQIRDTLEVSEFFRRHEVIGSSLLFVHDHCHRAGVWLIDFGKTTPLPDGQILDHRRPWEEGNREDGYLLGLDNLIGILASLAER
# UniProt P18846: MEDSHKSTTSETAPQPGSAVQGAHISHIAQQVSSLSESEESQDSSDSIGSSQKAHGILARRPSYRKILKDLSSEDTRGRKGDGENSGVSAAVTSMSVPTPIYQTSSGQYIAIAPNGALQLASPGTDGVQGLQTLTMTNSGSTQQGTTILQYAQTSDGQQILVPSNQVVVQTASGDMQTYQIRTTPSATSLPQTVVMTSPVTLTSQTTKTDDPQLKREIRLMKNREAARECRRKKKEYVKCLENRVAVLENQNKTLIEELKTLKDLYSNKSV
# Compound: Cc1nc(Nc2ncc(C(=O)Nc3c(C)cccc3Cl)s2)cc(N2CCN(CCO)CC2)n1 [dasatinib]
# Experiment: log2 fold change of tryptic peptide abundance, ligand vs vehicle (limited proteolysis) (log2 ratio); higher = more trypsin-susceptible (destabilized)
# Settings: ligand concentration: 5 uM; sample: K562 cleared lysate
row,Target,log2 fold change
1,"JUP (peptide sequence: QEGLESVLK, peptide start residue: 386) (UniProt P14923)",-0.393
2,"MSH3 (peptide sequence: SKELEGLINTKR, peptide start residue: 1090) (UniProt P20585)",0.764
3,"NDUFS1 (peptide sequence: DFYMTDSISR, peptide start residue: 693) (UniProt P28331)",0.345
4,"RPL17 (peptide sequence: GLDVDSLVIEHIQVNK, peptide start residue: 106) (UniProt P18621)",0.0746
5,"GART (peptide sequence: TVAPMPPAQDHK, peptide start residue: 208) (UniProt P22102)",0.207
6,"CHML (peptide sequence: QCSFSEYLK, peptide start residue: 319) (UniProt P26374)",0.11
7,"AMD1 (peptide sequence: DVQCSIISVTK, peptide start residue: 46) (UniProt P17707)",-0.866
8,"ITPKA (peptide sequence: TMVNLPVISPFKK, peptide start residue: 172) (UniProt P23677)",0.632
9,"ATF1 (peptide sequence: TLKDLYSNK, peptide start residue: 261) (UniProt P18846)",0.138

# Part of the list above, tab-delimited.
row	Target	log2 fold change
8	ITPKA (peptide sequence: TMVNLPVISPFKK, peptide start residue: 172) (UniProt P23677)	0.632
9	ATF1 (peptide sequence: TLKDLYSNK, peptide start residue: 261) (UniProt P18846)	0.138
